According to US10548864B2, “Enhanced ATRA-related compounds for the treatment of proliferative diseases, autoimmune diseases, and addiction conditions” (Beth Israel Deaconess Medical Center, Inc., priority 2015, dated 2020):
Some results were stated once for a whole list of compounds, not compound by compound. Some ranges recur; such a range may be that of the whole group of compounds.

Amino acid sequences for entries named in this document (tags omitted).
UniProt Q13526, whole entry: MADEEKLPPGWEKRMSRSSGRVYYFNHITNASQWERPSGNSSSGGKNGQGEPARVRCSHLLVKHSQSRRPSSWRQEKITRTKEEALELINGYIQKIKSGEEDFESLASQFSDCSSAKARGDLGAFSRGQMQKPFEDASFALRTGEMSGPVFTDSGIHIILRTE

Molecular target: GST-Pin1 (Homo sapiens, UniProt Q13526)
Test: Fluorescence polarization pTide competition assay (FP-HTS / FP assay)

## COc1cc(C)c(/C=C/C(C)=C/C=C/C(C)=C/C(=O)O)c(C)c1C [acitretin]
  Relative inhibition of Pin1 (relative to ATRA): 25-64%
